Reference: PMC12431657, “Discovery and mechanistic insights of dibenzoylmethane as a broad spectrum inhibitor of coronavirus” (PLOS Pathogens, 2025)
Where two headings read alike, the source gives them in different places. The whole screen tested about 3,300 compounds, of which about 95 (3%) showed an effect of 50% or more. Some of the results follow. Numbered stars: 1 amine (or outer) side, 2 acyl side, 3 side chain; on linkers, the order of the positions; unused ones are H or OH. Bridge positions count the residues as written; N and C are the ends. Square brackets hold non-standard residues; d marks the D form. Peptide text beside a SMILES is read from it. * marks the point of attachment. Orn(4R-OH,5R-OH) = O=C([C@H](C[C@@H](O)[C@@H](O)N[*:3])N[*:1])[*:2]; Tetradecanoyl(10R,12S-Me2) = CC[C@H](C)C[C@H](C)CCCCCCCCC(=O)*; hTyr(3S-OH,4S-OH) = N[C@H](C(=O)O)[C@H](O)[C@@H](O)c1ccc(O)cc1; Gln(3R-OH) = NC(=O)C[C@@H](O)[C@H](N)C(=O)O; Pro(3S-OH) = O=C(O)[C@H]1NCC[C@@H]1O; Hyp = O=C(O)[C@@H]1C[C@@H](O)CN1

Test system: HCoV-229E
Set-up: species or system Huh-7; HTS, protection from HCoV-229E induced cell death, luminescent cell viability (CellCounting-Lite 2.0), inhibition rate
Conditions: 24 h post infection, 1 h compound pre-incubation, 10 µM, inhibitor

Compound	229E Inhibition rate	229E Inhibition rate (229E Inhibition rate, 24 h)
O=C1c2ccccc2C(=O)c2ccccc21 [Anthraquinone]	24.8%	
O=C(N[C@@H](c1ccccc1)[C@@H](O)C(=O)O)c1ccccc1 [N-Benzoyl-(2R,3S)-3-phenylisoserine]	24.7%	
COc1c(CC=C(C)C)c(O)cc2oc(=O)c(-c3ccc(O)cc3O)cc12 [Glycycoumarin]	5.6%	
CC[C@]12C=CCN3CC[C@]4(C(=C(C(=O)OC)C1)Nc1ccccc14)[C@@H]32 [Tabersonine]	0%	
COc1cc(/C=C/C(=O)OCC[N+](C)(C)C)cc(OC)c1O [Sinapine]	13.4%	
CC(C)(O)CC[C@@H](O)[C@](C)(O)[C@H]1CC[C@@]2(O)C3=CC(=O)[C@@H]4C[C@@H](O)[C@@H](O)C[C@]4(C)[C@H]3[C@H](O)C[C@]12C [Turkesterone]	13.1%	
CCOC(=O)CCC(=O)OCC [Diethyl succinate]	7.8%	
C[C@@H]1CC[C@@]2(OC1)O[C@H]1C[C@H]3[C@@H]4CC[C@H]5C[C@@H](O)CC[C@]5(C)[C@H]4CC[C@]3(C)[C@H]1[C@@H]2C [Tigogenin]	11%	
Oc1cc(O)cc(/C=C/c2ccccc2)c1 [Pinosylvin]	27.9%	
O=c1c(O)c(-c2ccccc2)oc2ccccc12 [Flavonol]	0%	
O=C(O)[C@@H](O)[C@@H](O)[C@H](O)[C@@H](O)C(=O)O [D-Glucaric acid (potassium)]	8.8%	
COc1cc2c(CCNC(C)=O)c[nH]c2cc1O [6-Hydroxymelatonin]	16.5%	
O=C(O)[C@@H]1Cc2nc[nH]c2CN1 [Spinacine]	20.9%	
O=C(O)CNC(=O)c1ccccc1 [Hippuric acid]	8.9%	
CC[C@H](C)C[C@H](C)CCCCCCCCC(=O)N[C@H]1C[C@@H](O)[C@@H](O)NC(=O)[C@@H]2[C@@H](O)CCN2C(=O)[C@H]([C@H](O)CC(N)=O)NC(=O)[C@H]([C@H](O)[C@@H](O)c2ccc(O)cc2)NC(=O)[C@@H]2C[C@@H](O)CN2C(=O)[C@H]([C@@H](C)O)NC1=O [Pneumocandin B0] ({Tetradecanoyl(10R,12S-Me2)}-[Orn(4R-OH,5R-OH)]T[Hyp][hTyr(3S-OH,4S-OH)][Gln(3R-OH)][Pro(3S-OH)]; lactam 1-C)	12.2%	
O=C(O)[C@H](O)[C@@H](O)C(=O)O [L-Tartaric acid]		17.2%
COc1cc(OC)c2c(=O)c(OC)c(-c3ccc(OC)c(OC)c3)oc2c1 [3,5,7,3′,4′-Pentamethoxyflavone]	13.3%	
O=C(O)Cc1ccccc1O [2-Hydroxyphenylacetic acid]	12.4%	
NCc1ccccc1O [o-Hydroxybenzylamine]	9.2%	

Arranged by molar mass (falling): part of the list above
Compound	229E Inhibition rate	229E Inhibition rate (229E Inhibition rate, 24 h)
CC(C)(O)CC[C@@H](O)[C@](C)(O)[C@H]1CC[C@@]2(O)C3=CC(=O)[C@@H]4C[C@@H](O)[C@@H](O)C[C@]4(C)[C@H]3[C@H](O)C[C@]12C [Turkesterone]	13.1%	
COc1cc2c(CCNC(C)=O)c[nH]c2cc1O [6-Hydroxymelatonin]	16.5%	
O=C(O)[C@@H]1Cc2nc[nH]c2CN1 [Spinacine]	20.9%	

Additional results:

Compound	229E Inhibition rate	229E Inhibition rate (229E Inhibition rate, 24 h)
Nc1[nH]cnc2ncnc1-2 [Adenine (hemisulfate)]		12.1%
CC(=O)O[C@@H](C[C@@H](C)C1=C2C[C@H](O)[C@H]3[C@@]4(C)CCC(=O)C(C)(C)[C@@H]4CC[C@]3(C)[C@@]2(C)CC1)[C@H]1OC1(C)C [Alisol B 23-acetate]	8.7%	
OCC1(O)COc2cc(O)ccc2-c2cc(O)c(O)cc2C1 (centres unmarked) [Protosappanin B]	0%	
O=c1c(O)c(-c2cc(O)c(O)c(O)c2)oc2cc(O)ccc12 [Robinetin]	12.3%	
COc1ccc(-c2oc3c(CC=C(C)C)c(O)cc(O)c3c(=O)c2O[C@@H]2O[C@@H](C)[C@H](O)[C@@H](O)[C@H]2O)cc1 [Baohuoside I]	13%	
NCCCC[C@H](N)C(=O)O [L-Lysine]		15.3%
CC(=O)OC/C=C(C)/C=C/C=C(C)/C=C/C1=C(C)CCCC1(C)C [Retinyl acetate]	15.6%	
CCCCCCCCCCCCCCCCCC(=O)O [Stearic acid]	19%	
NC(CO)C(=O)O (racemic) [DL-Serine]	9.1%	
CC[C@H]1OC(=O)C[C@@H](O)[C@H](C)[C@@H](O[C@@H]2O[C@H](C)[C@@H](O[C@H]3C[C@@](C)(O)[C@@H](O)[C@H](C)O3)[C@H](N(C)C)[C@H]2O)[C@@H](CC=O)C[C@@H](C)C(=O)/C=C/C(C)=C/[C@@H]1CO[C@@H]1O[C@H](C)[C@@H](O)[C@@H](OC)[C@H]1OC [Tylosin (tartrate)]		18.5%
OC[C@@H](O)[C@@H](O)CO [meso-Erythritol]	12.6%	
CN1c2c(nc(N)[nH]c2=O)NCC1CNc1ccc(C(=O)N[C@@H](CCC(=O)O)C(=O)O)cc1 (some centres unmarked) [5-Methyltetrahydrofolic acid]	11.5%	
COC(=O)C1=COC(O[C@@H]2O[C@H](CO)[C@@H](O)[C@H](O)[C@H]2O)/C(=C/C(=O)O)C1CC(=O)OCCc1ccc(O)cc1 (some centres unmarked) [Ligustrosidic acid]	10.3%	
C[N+](C)(C)CCOP(=O)(O)OP(=O)([O-])OC[C@H]1O[C@@H](n2ccc(N)nc2=O)[C@H](O)[C@@H]1O [Citicoline (sodium)]		9.6%
O=C(O)c1cccc(O)c1 [3-Hydroxybenzoic acid]	18.9%	
O=c1c(O[C@@H]2OC[C@@H](O)[C@H](O)[C@H]2O)c(-c2ccc(O)c(O)c2)oc2cc(O)cc(O)c12 [Reynoutrin]	19.1%	
C[C@@H]1O[C@@H](O[C@H]2[C@H](O[C@H]3CC[C@@]4(C)[C@@H](CC[C@]5(C)[C@@H]4CC=C4[C@@H]6CC(C)(C)CC[C@]6(C(=O)O)CC[C@]45C)[C@]3(C)CO)OC[C@H](O)[C@@H]2O)[C@H](O)[C@H](O[C@@H]2O[C@H](CO)[C@@H](O[C@@H]3O[C@H](CO)[C@@H](O)[C@H](O)[C@H]3O)[C@H](O)[C@H]2O)[C@H]1O [Macranthoside B]	9.3%	
O=Cc1ccc(O[C@@H]2O[C@H](CO)[C@@H](O)[C@@H](O)[C@H]2O)cc1 [Helicid]	0%	
O=C1CC[C@H](C(=O)O)N1 [(R)-5-Oxopyrrolidine-2-carboxylic acid]	6.6%	
